This is one part of the list.
Tests used:
Assay in all cases: glycan array binding signal (z-score within array); higher = stronger binding
Settings in all cases: glycan notation: IUPAC condensed, linker removed
[1] = molecular target: GlcNAc(b1-3)Gal(b1-4)GlcNAc(b1-3)Gal(b1-4)GlcNAc(b1-3)Gal(b1-4)GlcNAc(b1-3)Gal(b1-4)GlcNAc(b1-2)[GlcNAc(b1-3)Gal(b1-4)GlcNAc(b1-3)Gal(b1-4)GlcNAc(b1-3)Gal(b1-4)GlcNAc(b1-3)Gal(b1-4)GlcNAc(b1-6)]Man(a1-6)[GlcNAc(b1-3)Gal(b1-4)GlcNAc(b1-3)Gal(b1-4)GlcNAc(b1-3)Gal(b1-4)GlcNAc(b1-3)Gal(b1-4)GlcNAc(b1-2)Man(a1-3)]Man(b1-4)GlcNAc(b1-4)[Fuc(a1-6)]GlcNAc
In short: (§1)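 Columns mapping to the same glycan were averaged after glycan names were converted to IUPAC-condensed notation. The data come from 3228 arrays in the Consortium for Functional Glycomics database, limited to those with an available protein sequence. Binding is reported as a within-array Z-score averaged across arrays of one protein sequence and across linkers.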

[2] = molecular target: GlcNAc(b1-3)Gal(b1-4)GlcNAc(b1-3)Gal(b1-4)GlcNAc(b1-3)GalNAc
In short: as §1

[3] = molecular target: GlcNAc(b1-3)Gal(b1-4)GlcNAc(b1-3)GalNAc
In short: as §1

[4] = molecular target: GlcNAc(b1-3)Gal(b1-4)GlcNAc(b1-3)[GlcNAc(b1-3)Gal(b1-4)GlcNAc(b1-3)]GalNAc
In short: as §1

[5] = molecular target: GlcNAc(b1-3)Gal(b1-4)GlcNAc(b1-6)[Gal(b1-3)]GalNAc
In short: as §1

[6] = molecular target: GlcNAc(b1-3)Gal(b1-4)GlcNAc(b1-6)[GlcNAc(b1-3)Gal(b1-3)]GalNAc
In short: as §1

[7] = molecular target: GlcNAc(b1-3)Gal(b1-4)GlcNAc(b1-6)[GlcNAc(b1-3)]Gal(b1-4)GlcNAc
In short: as §1

GlcNAc(b1-3)GalNAc = molecular target: GlcNAc(b1-3)GalNAc
In short: as §1

GlcNAc(b1-3)Man = molecular target: GlcNAc(b1-3)Man
In short: as §1

[8] = molecular target: GlcNAc(b1-3)[GlcNAc(b1-4)][GlcNAc(b1-6)]GlcNAc
In short: as §1

[9] = molecular target: GlcNAc(b1-3)[GlcNAc(b1-6)]Gal(b1-4)GlcNAc
In short: as §1

[10] = molecular target: GlcNAc(b1-3)[GlcNAc(b1-6)]GalNAc
In short: as §1

[11] = molecular target: GlcNAc(b1-4)Gal(b1-4)GlcNAc
In short: as §1

GlcNAc(b1-4)GlcNAc = molecular target: GlcNAc(b1-4)GlcNAc
In short: as §1

[12] = molecular target: GlcNAc(b1-4)GlcNAc(b1-4)GlcNAc
In short: as §1

[13] = molecular target: GlcNAc(b1-4)GlcNAc(b1-4)GlcNAc(b1-4)GlcNAc(b1-4)GlcNAc
In short: as §1

[14] = molecular target: GlcNAc(b1-4)GlcNAc(b1-4)GlcNAc(b1-4)GlcNAc(b1-4)GlcNAc(b1-4)GlcNAc
In short: as §1

[15] = molecular target: GlcNAc(b1-4)[GlcNAc(b1-6)]GalNAc
In short: as §1

[16] = molecular target: GlcNAc(b1-6)Gal(b1-4)GlcNAc
In short: as §1

GlcNAc(b1-6)GalNAc = molecular target: GlcNAc(b1-6)GalNAc
In short: as §1

[17] = molecular target: GlcNAc6S(b1-3)Gal(b1-4)GlcNAc
In short: as §1

Kdn(a2-3)Gal(b1-3)GalNAc = molecular target: Kdn(a2-3)Gal(b1-3)GalNAc
In short: as §1

Kdn(a2-3)Gal(b1-3)GlcNAc = molecular target: Kdn(a2-3)Gal(b1-3)GlcNAc
In short: as §1

Kdn(a2-3)Gal(b1-4)Glc = molecular target: Kdn(a2-3)Gal(b1-4)Glc
In short: as §1

Kdn(a2-3)Gal(b1-4)GlcNAc = molecular target: Kdn(a2-3)Gal(b1-4)GlcNAc
In short: as §1

[18] = molecular target: Kdn(a2-3)Gal(b1-4)[Fuc(a1-3)]GlcNAc
In short: as §1

Kdn(a2-6)Gal(b1-4)GlcNAc = molecular target: Kdn(a2-6)Gal(b1-4)GlcNAc
In short: as §1

[19] = molecular target: Man(a1-2)Man(a1-2)Man(a1-3)Man
In short: as §1

[20] = molecular target: Man(a1-2)Man(a1-2)Man(a1-6)[Man(a1-3)]Man
In short: as §1

Man(a1-2)Man(a1-3)Man = molecular target: Man(a1-2)Man(a1-3)Man
In short: as §1

[21] = molecular target: Man(a1-2)Man(a1-3)[Man(a1-2)Man(a1-6)]Man
In short: as §1

[22] = molecular target: Man(a1-2)Man(a1-3)[Man(a1-2)Man(a1-6)]Man(a1-6)[Man(a1-2)Man(a1-2)Man(a1-3)]Man
In short: as §1

[23] = molecular target: Man(a1-2)Man(a1-3)[Man(a1-2)Man(a1-6)]Man(a1-6)[Man(a1-2)Man(a1-2)Man(a1-3)]Man(b1-4)GlcNAc(b1-4)GlcNAc
In short: as §1

[24] = molecular target: Man(a1-2)Man(a1-3)[Man(a1-6)]Man(a1-6)[Man(a1-2)Man(a1-3)]Man(b1-4)GlcNAc(b1-4)GlcNAc
In short: as §1

[25] = molecular target: Man(a1-2)Man(a1-6)[Man(a1-3)]Man(a1-6)[Man(a1-2)Man(a1-2)Man(a1-3)]Man
In short: as §1

[26] = molecular target: Man(a1-2)Man(a1-6)[Man(a1-3)]Man(a1-6)[Man(a1-2)Man(a1-2)Man(a1-3)]Man(b1-4)GlcNAc(b1-4)GlcNAc
In short: as §1

Man(a1-3)[Man(a1-6)]Man = molecular target: Man(a1-3)[Man(a1-6)]Man
In short: as §1

B1: Epa19 (Candida glabrata) (protein)
chain: MGSSHHHHHHSSGLVPRGSHMASSKDPTRFPIGCSPQVLKTQPGLAVKLYSYGHPVPGCSYITYQYPDFPRSGYKKERKLADITGVNGKIDIDLKPNDPCRVLTGHLPSNYNYPDTLTYTNFTMILYGYFQPKVTGYHTFNLEADDLLFMNLGAGNAFDCCKAESTLDNFGNYQSYSLWGSDYAKANITVFLVSGVYYPIRLFYVNRDNNAVIDFSFTTEFDKEKVHDFTSYFFSASDGEQCPGSV
- glycan array binding signal (z-score) [1]: 2.39
- glycan array binding signal (z-score) [2]: 0.479
- glycan array binding signal (z-score) [3]: 0.994
- glycan array binding signal (z-score) [4]: 0.409
- glycan array binding signal (z-score) [5]: -0.085
- glycan array binding signal (z-score) [6]: -0.077
- glycan array binding signal (z-score) [7]: -0.237
- glycan array binding signal (z-score) (GlcNAc(b1-3)GalNAc): -0.915
- glycan array binding signal (z-score) (GlcNAc(b1-3)Man): 0.124
- glycan array binding signal (z-score) [8]: -0.599
- glycan array binding signal (z-score) [9]: -0.086
- glycan array binding signal (z-score) [10]: -0.568
- glycan array binding signal (z-score) [11]: -0.432
- glycan array binding signal (z-score) (GlcNAc(b1-4)GlcNAc): -0.042
- glycan array binding signal (z-score) [12]: -0.295
- glycan array binding signal (z-score) [13]: 0.233
- glycan array binding signal (z-score) [14]: -0.594
- glycan array binding signal (z-score) [15]: -0.556
- glycan array binding signal (z-score) [16]: 0.368
- glycan array binding signal (z-score) (GlcNAc(b1-6)GalNAc): 0.011
- glycan array binding signal (z-score) [17]: 0.237
- glycan array binding signal (z-score) (Kdn(a2-3)Gal(b1-3)GalNAc): 0.843
- glycan array binding signal (z-score) (Kdn(a2-3)Gal(b1-3)GlcNAc): 0.692
- glycan array binding signal (z-score) (Kdn(a2-3)Gal(b1-4)Glc): -0.214
- glycan array binding signal (z-score) (Kdn(a2-3)Gal(b1-4)GlcNAc): -0.465
- glycan array binding signal (z-score) [18]: -0.281
- glycan array binding signal (z-score) (Kdn(a2-6)Gal(b1-4)GlcNAc): -0.099
- glycan array binding signal (z-score) [19]: -0.225
- glycan array binding signal (z-score) [20]: -0.611
- glycan array binding signal (z-score) (Man(a1-2)Man(a1-3)Man): -0.901
- glycan array binding signal (z-score) [21]: -0.465
- glycan array binding signal (z-score) [22]: 0.349
- glycan array binding signal (z-score) [23]: -0.05
- glycan array binding signal (z-score) [24]: -0.435
- glycan array binding signal (z-score) [25]: -0.56
- glycan array binding signal (z-score) [26]: -0.373
- glycan array binding signal (z-score) (Man(a1-3)[Man(a1-6)]Man): 0.05

From the supplement of paper PMC8728848
